Data: PubChem BioAssay AID588499 (NMMLSC, 2011)
The whole screen tested about 360,000 compounds, of which about 610 (0.17%) were called active. The inconclusive results got no clear call from the source; some entries with a clear call stand among them for comparison. Rule as the data show it: active = inhibition above about 30%; inconclusive = no clear call, values can overlap the other calls; inactive = below that.

Each compound was assayed on Botulinum neurotoxin type A light chain protease (Clostridium botulinum A str. ATCC 3502) (assay: blockers of BoNT/A LC substrate cleavage – biochemical, flow cytometry, MLPCN library, primary screen (AID 588499; also: plate controls were buffer without enzyme for full effect and enzyme alone for no effect)). Settings: multiplex microsphere protease substrate cleavage, at 10 µM, active compounds read high.
For `O=c1oc(-c2ccccc2NS(=O)(=O)c2ccc(Cl)cc2)nc2ccccc12`, the inhibition was inconclusive: 2.8%.
With `O=Cc1ccc(OCCCOc2cccc3cccnc23)cc1` the inhibition was inconclusive: -4.4%.
In the case of `CNC(=O)COC(=O)C1CCN(S(=O)(=O)c2ccc3c(c2)OCCO3)CC1`, the inhibition is reported as inactive: 0%.
In the case of `COc1ccc(CCNC(=O)c2cnn(-c3ccc(C)c(C)c3)c2NC(=O)c2ccco2)cc1OC`, the inhibition is reported as inconclusive: 0.6%.
For `Cc1ccsc1C(=O)NNC(=S)NCC(C)C`, the inhibition was inconclusive: 1.6%.
With `COc1ccc(C(=O)Nn2c(SCC(=O)NCc3ccco3)nc3ccccc3c2=O)cc1` the inhibition was inactive: -0.4%.
`CNC(=S)NNC(=O)Cc1ccccc1` was tested, and the inhibition was inconclusive: -2.8%.
`NC(=O)/C(=C/c1ccco1)C(N)=S` was tested, and the inhibition was inconclusive: -7.4%.
`O=S(=O)(NC1CCCC1)c1ccccc1Cl` was tested, and the inhibition was inconclusive: 3.5%.
With `COc1ccc2nc(NC(=O)Cn3cnc4ccccc4c3=O)sc2c1` the inhibition was inactive: -0.3%.
`CCc1cc(=O)oc2c(CNCc3ccc(OC)cc3OC)c(O)c(Cl)cc12` was tested, and the inhibition was inactive: 0.4%.
In the case of `O=C(Nc1cccc(C(F)(F)F)c1)c1cc2c(=O)c3ccccc3oc2nc1C(F)(F)F`, the inhibition is reported as inconclusive: -3.3%.
With `Cc1cc(C)n(C2CC(=O)N(c3cc(Cl)cc(Cl)c3)C2=O)n1` (configuration not stated) the inhibition was inconclusive: -22.6%.
`O=C1CSc2ccc(C(=O)N3CCN(c4ccccn4)CC3)cc2N1` was tested, and the inhibition was inconclusive: -8.2%.
In the case of `COc1ccc(NC(=O)CSc2nnc(-c3ccccn3)n2N)cc1`, the inhibition is reported as active: 33.7%.
With `O=C1c2cccc(NCCCNCCO)c2C(=O)c2cccc(NCCCNCCO)c21` the inhibition was active: 30%.
For `O=C1C2C3C=CC(C3)C2C(=O)N1c1ccccc1` (configuration not stated), the inhibition was inconclusive: -1%.
With `O=C(Nc1ccccc1NC(=O)NC1CCCCC1)NC1CCCCC1` the inhibition was inconclusive: -4.1%.
In the case of `NCCc1nnc(SCC(=O)c2ccc(Cl)cc2)o1`, the inhibition is reported as inconclusive: 0.4%.
For `O=C(COC(=O)CNC(=O)C12CC3CC(CC(C3)C1)C2)Nc1ccccc1`, the inhibition was inconclusive: 11.5%.
With `CCc1ccc(C2C3=C(CC(C)(C)CC3=O)Nc3c2c(=O)[nH]c2nc(C)nn32)cc1` (configuration not stated) the inhibition was inconclusive: -7.7%.
In the case of `COc1ccc(N2CCN(c3nc(NCCc4ccc(OC)c(OC)c4)nc(OC)n3)CC2)cc1`, the inhibition is reported as inconclusive: -0.3%.
With `C[C@H]1Cn2cnc(C(=O)NCc3ccc(CNC(=O)OC(C)(C)C)cc3)c2C(=O)N1` the inhibition was inactive: 0%.
`Cc1cccc(CNC(=O)C2CCC(=O)N(C3CC3)C2)c1` (configuration not stated) was tested, and the inhibition was inactive: 2.6%.
`COc1ccc(NC(=O)CSCC(=O)N(C)Cc2ccc3c(c2)OCCO3)cc1` was tested, and the inhibition was inactive: -0.2%.
`CCOC(=O)CSc1nc2sc3c(c2c(=O)n1-c1ccc(OC)cc1)CCN(C)C3` was tested, and the inhibition was active: 42%.
For `CC(=O)Nc1cccc(C(=O)Nc2ccc(S(=O)(=O)NC3=NCCCCC3)cc2)c1`, the inhibition was inconclusive: -1.6%.
For `COc1ccc(CN(C(=O)CSc2nnc(-c3ccccc3C)o2)c2ccc(F)cc2)cc1`, the inhibition was inactive: 0%.
In the case of `COc1ccc(S(=O)(=O)Oc2ccc3c(c2)O/C(=C\c2cccnc2)C3=O)cc1`, the inhibition is reported as inconclusive: 0.5%.
`CSC(=NC#N)N1CCN(c2ccccc2)CC1` was tested, and the inhibition was inconclusive: -2%.
In the case of `CC(C)(C)NC(=O)C(c1ccccc1)N(C(=O)c1ccco1)C1CC1` (configuration not stated), the inhibition is reported as inconclusive: 1%.
With `CC(C)=CCSc1nnc(CCNC(=O)OC(C)(C)C)o1` the inhibition was inconclusive: 4.6%.
In the case of `CCOc1ccc(NC(=O)CC2C(=O)N(c3ccccc3)C(=O)N2Cc2ccco2)cc1` (configuration not stated), the inhibition is reported as inconclusive: -3.4%.
In the case of `O=Cc1ccc(N2N=C(c3ccccc3)CC2c2ccccc2)cc1` (configuration not stated), the inhibition is reported as active: 41.5%.
In the case of `CCCn1c(=N)n(CC(O)COc2ccc(C)cc2)c2ccccc21` (configuration not stated), the inhibition is reported as inconclusive: 5.4%.
For `CC(Oc1ccc(F)cc1)C(=O)N(Cc1ccccc1)c1c(N)n(Cc2ccccc2)c(=O)[nH]c1=O` (configuration not stated), the inhibition was inconclusive: -1.2%.
In the case of `COCCn1c(-c2ccc(OC)cc2)cnc1SCC(=O)Nc1cccc2ccccc12`, the inhibition is reported as inactive: -0.7%.
For `COc1ccc(CNC(=O)Nc2ccc(OC)cc2)cc1`, the inhibition was inactive: -0.1%.
For `Cc1oc(C(=O)O)cc1COc1ccc2c3c(c(=O)oc2c1)CCC3`, the inhibition was inconclusive: -2.2%.
In the case of `Cc1ccccc1OCCC(=O)OCC(=O)N1c2ccccc2NC(=O)C1(C)C`, the inhibition is reported as inconclusive: -2.9%.
In the case of `O=C(NCCS(=O)(=O)NCc1cccnc1)c1ccccc1`, the inhibition is reported as inconclusive: -14.3%.
In the case of `CC1CCN(C(=O)CN(c2ccc3c(c2)OCO3)S(C)(=O)=O)CC1`, the inhibition is reported as inconclusive: -2.1%.
`O=C(O/N=C1/CCSc2ccccc21)c1ccc(F)cc1` was tested, and the inhibition was inconclusive: -3.6%.
In the case of `COc1ccc(CC(=O)NCc2ccc3c(c2)cc(C)n3C)cc1OC`, the inhibition is reported as active: 50.8%.
For `CC(C)C(=O)NNC(=O)c1csc(-c2cccs2)n1`, the inhibition was inconclusive: -21.5%.
For `CN(C)c1ccc(-c2nnc(-c3ccccc3F)o2)cc1`, the inhibition was inactive: -1.9%.
For `CCOC(=O)CSc1nnc(CNC(=O)c2cccs2)n1-c1ccccc1`, the inhibition was inconclusive: -1.6%.
In the case of `c1ccc(Oc2ccc(-c3ccn[nH]3)cc2)cc1`, the inhibition is reported as inconclusive: -32%.
With `COc1cc(S(=O)(=O)Nc2cccc(C(=O)O)c2)c(OC)cc1Cl` the inhibition was inconclusive: 3.3%.
With `O=C(c1cnc2sccn2c1=O)N1CCCc2ccccc21` the inhibition was inactive: -0.4%.
In the case of `Cc1cc2occ(CC(=O)N(C)CC(=O)Nc3ccc(F)cc3)c2cc1C`, the inhibition is reported as inactive: 5.6%.
`Cn1c(=O)c2c(nc(SCC(=O)NCc3ccco3)n2C)n(C)c1=O` was tested, and the inhibition was inconclusive: -4%.
For `CC(=O)c1cccc(-c2ccnc3c2CC(C(=O)Nc2cccc(OC(F)(F)F)c2)O3)c1` (configuration not stated), the inhibition was inactive: 0%.
For `O=C(Nc1ccc(Cl)cc1)c1csc(-c2ccncc2)n1`, the inhibition was inactive: -0.6%.
With `O=C(N/N=C/c1ccco1)c1csc2c1CCCC2` the inhibition was inconclusive: -42.9%.
In the case of `C/C(=N\Nc1ncnc2sc(C)c(C)c12)c1ccccn1`, the inhibition is reported as active: 40.4%.
With `COc1ccc(NS(=O)(=O)c2ccc(C)c(C(=O)N3CCC3)c2)cc1` the inhibition was inconclusive: 0.9%.
`COc1cccc(Nc2nc(NCCO)c3ccccc3n2)c1` was tested, and the inhibition was inactive: 0.5%.
For `COC(=O)c1ccc2c(=O)[nH]c(COC(=O)c3c(-c4ccccc4Cl)noc3C)nc2c1`, the inhibition was inactive: -0.4%.
For `Cc1cc2ccccc2n1CCNC(=O)c1ccc(S(=O)(=O)N2CCCCC2)cc1`, the inhibition was active: 59.1%.
For `CCCCOC(=O)c1cccc(NC(=O)CCC(=O)O)c1`, the inhibition was inconclusive: -0.8%.
For `Cc1ccc(C)c(NC(=O)CN(C)C(=O)c2ccccc2OCc2ccc(Cl)cc2)c1`, the inhibition was inactive: -0.1%.
`CCOC(=O)c1cccc(NC(=O)c2cc3sccc3n2C)c1` was tested, and the inhibition was inconclusive: -7.8%.
For `COc1ccc(S(=O)(=O)Cc2ccc(C(=O)NCCCN(C)c3ccccc3)o2)cc1`, the inhibition was inconclusive: 0.4%.
`O=C(Nc1ccon1)c1cc2c(s1)CCCC2` was tested, and the inhibition was inconclusive: 4.7%.
With `O=C(CSc1ccc(C(F)(F)F)cn1)Nc1ccccc1` the inhibition was inconclusive: -7.8%.
In the case of `CSc1ccccc1OCc1cc(C(=O)NC2CCOC2)no1` (configuration not stated), the inhibition is reported as inactive: 2.2%.
`Cc1ccc(NC(=O)C2(N(CC(C)C)C(=O)Cn3nnnc3N)CCCCC2)cc1` was tested, and the inhibition was inconclusive: -17.2%.
In the case of `Cc1c(Cc2ccccc2)c(=O)oc2cc(OCC(=O)NCC(O)c3ccccc3)ccc12` (configuration not stated), the inhibition is reported as inactive: 0.7%.
For `CCN(CC)S(=O)(=O)N1CCC(C(=O)NC2CCCC2)CC1`, the inhibition was inconclusive: 2.3%.
With `CCOC(=O)c1oc2cccc(O)c2c1CN(Cc1ccccc1)C(C)=O` the inhibition was inconclusive: 0.4%.
In the case of `COc1cc2c(C(=O)N3CCN(C)CC3)c(C)n(-c3ccccc3)c2cc1Br`, the inhibition is reported as inactive: -2.2%.
For `CCN(CC(=O)Nc1ccc(C#N)c(Cl)c1)CC(=O)NC1CCS(=O)(=O)C1` (configuration not stated), the inhibition was inconclusive: 0.6%.
`Cc1nn2c(nc1=O)NNC2(C)C(C)(C)C` (configuration not stated) was tested, and the inhibition was inactive: -0.7%.
`O=C(NC1C2CCCC1CN(C1CC1)C2)c1ccc(Cl)cc1` (configuration not stated) was tested, and the inhibition was inconclusive: 2.2%.
For `CC(C)NC(=S)N/N=C1\CCCCC1C1CCCCC1` (configuration not stated), the inhibition was inconclusive: 0%.
In the case of `O=C(CSc1ccc2c(c1)OCCO2)Nc1ncccc1O`, the inhibition is reported as inconclusive: -4.2%.
`CC(=O)Nc1ccc(NC2=Nc3ccccc3N3C2=Nc2c(c(C)nn2-c2ccccc2)C3c2ccccc2)cc1` (configuration not stated) was tested, and the inhibition was active: 147%.
In the case of `C[n+]1cccc2cccc([O-])c21`, the inhibition is reported as inactive: -1.9%.
With `Cc1ccc(S(=O)(=O)CNC(=S)c2ccc3ccccc3c2)cc1` the inhibition was inconclusive: 0.9%.
For `Cc1cc(/C=C2\Sc3ccccc3N2C)cc(C)[n+]1CC1CCCO1` (configuration not stated), the inhibition was active: 42.5%.
In the case of `C=CCN1C(=O)C(C(C)CC)NC1=S` (configuration not stated), the inhibition is reported as inconclusive: 8.5%.
With `COc1ccc(C2CC(c3cccs3)=NN2c2nc(C)c(C(C)=O)s2)cc1OC` (configuration not stated) the inhibition was active: 63.7%.
In the case of `O=C(Nc1ccc(S(=O)(=O)Nc2ncccn2)cc1)c1ccc(Br)s1`, the inhibition is reported as inactive: -2.4%.
With `CCOC(=O)C1=C(CN2CCC(C)CC2)NC(=O)NC1c1ccc(Cl)cc1` (configuration not stated) the inhibition was inconclusive: -1.8%.
In the case of `Cc1ccc(Cl)cc1N(Cc1ccc(C(=O)NCc2cccnc2)cc1)S(=O)(=O)c1ccccc1`, the inhibition is reported as inconclusive: 2.2%.
For `CC1(C(=O)NC2CCCC2)CCC(=O)N1Cc1cccs1` (configuration not stated), the inhibition was inconclusive: -1.4%.
`COc1ccc(-c2cc(N)n(S(=O)(=O)c3c(F)c(F)c(F)c(F)c3F)n2)cc1OC` was tested, and the inhibition was inconclusive: -0.5%.
In the case of `Cc1ccc2nc(-c3ccc(O)c(O)c3)cn2c1`, the inhibition is reported as inactive: -1.9%.
`COc1cccc(-c2nc(CSCC(=O)N3CCc4ccccc43)c(C)o2)c1` was tested, and the inhibition was inconclusive: -4%.
With `Cn1nnnc1NC(=O)c1ccccc1Cl` the inhibition was inactive: -0.1%.
For `CCOC(=O)C1=C(O)/C(=C/c2cc(C)n(-c3ccccc3)c2C)N=C1C`, the inhibition was inconclusive: 19.9%.
